System: croton oil-induced granuloma
Assay: Croton Oil-induced Granuloma (granuloma pouch)
Type: in vivo, male Sprague-Dawley rats
Conditions: Rattus norvegicus, 168 h, read-out: Effects on pouch fluid (exudate) volume, per cent of inhibition over the control, 1.0 mg/rat; 7 days
Description: Groups of 5 male Sprague-Dawley rats each weighing 160-180 g were used. Under ether anesthesia, the dorsum of animals was closely clipped, and air sac was formed by injecting air (20 ml) subcutaneously. Next day cotton seed oil containing 1% croton oil was injected into the air sac. Drugs to be tested were suspended in the cotton seed oil containing 1% croton oil, and administered. After 7 days, the blood was taken from the animal under ether anesthesia. Then, the granuloma pouch fluid (exudate) was collected, and the fluid volume was measured. The pouch wall formed around granuloma and thymus were also excised and weighed.

Q: Which inhibition in vivo at 1 mg does the source give for CCCCC(=O)OCC(=O)[C@H]1[C@H](C)C[C@H]2[C@@H]3C[C@H](F)C4=CC(=O)C=C[C@]4(C)[C@@]3(F)[C@@H](O)C[C@@]21C [Diflucortolone valerate, reference compound] here?
A: 90.8 ± 3.3%

From patent US5945404A, “21-Substituted steroid compound” (priority 1993, dated 1999)
